These are yes or no findings as the source states them, for the method shown. Binding seen in cells or lysates may run through a third protein. Here binding means that the protein was enriched with, or labelled near, the bait; the list need not be complete.
Target: Nsun2 (RNA 5-methylcytosine methyltransferase), endogenous in mouse Th17 cells (mouse (endogenous in Th17 cells)) (UniProt Q1HFZ0)
Experiment: affinity purification with mass spectrometry; endogenous Nsun2 immunoprecipitated with Nsun2 antibody and protein A/G Dynabeads from RIPA lysate of Th17 cells induced for 4 days; gel analysed by mass spectrometry

Sequences of proteins named here, by UniProt entry; tags and fusion partners are left off. A change or cut given only in a name is not applied to a line headed by its entry. A line that says so, or that is headed by a name, gives the form on record, which may keep a tag or linker.
UniProt Q1HFZ0: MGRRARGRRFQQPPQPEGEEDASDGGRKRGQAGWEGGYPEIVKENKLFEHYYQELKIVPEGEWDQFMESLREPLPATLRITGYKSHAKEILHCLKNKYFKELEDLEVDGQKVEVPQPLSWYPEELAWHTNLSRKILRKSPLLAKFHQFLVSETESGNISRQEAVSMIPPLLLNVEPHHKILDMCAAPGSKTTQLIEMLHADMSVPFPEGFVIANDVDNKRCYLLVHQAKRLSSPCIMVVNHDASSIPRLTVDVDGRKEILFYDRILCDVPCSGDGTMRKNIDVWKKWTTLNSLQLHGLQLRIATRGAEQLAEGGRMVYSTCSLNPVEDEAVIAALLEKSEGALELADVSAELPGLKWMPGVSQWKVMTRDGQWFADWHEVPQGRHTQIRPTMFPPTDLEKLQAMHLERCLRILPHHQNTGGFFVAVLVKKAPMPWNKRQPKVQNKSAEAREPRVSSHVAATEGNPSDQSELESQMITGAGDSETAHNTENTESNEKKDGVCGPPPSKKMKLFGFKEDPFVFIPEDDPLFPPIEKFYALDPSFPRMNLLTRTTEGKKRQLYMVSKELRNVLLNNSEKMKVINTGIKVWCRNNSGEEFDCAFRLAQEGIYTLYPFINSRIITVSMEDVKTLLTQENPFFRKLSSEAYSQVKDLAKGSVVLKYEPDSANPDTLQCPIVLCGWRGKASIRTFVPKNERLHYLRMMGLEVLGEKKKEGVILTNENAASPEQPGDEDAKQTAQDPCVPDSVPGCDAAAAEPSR
Retinoic acid receptor-related orphan receptor gamma t (RoRγt), endogenous in mouse Th17 cells (P51450-2, form named): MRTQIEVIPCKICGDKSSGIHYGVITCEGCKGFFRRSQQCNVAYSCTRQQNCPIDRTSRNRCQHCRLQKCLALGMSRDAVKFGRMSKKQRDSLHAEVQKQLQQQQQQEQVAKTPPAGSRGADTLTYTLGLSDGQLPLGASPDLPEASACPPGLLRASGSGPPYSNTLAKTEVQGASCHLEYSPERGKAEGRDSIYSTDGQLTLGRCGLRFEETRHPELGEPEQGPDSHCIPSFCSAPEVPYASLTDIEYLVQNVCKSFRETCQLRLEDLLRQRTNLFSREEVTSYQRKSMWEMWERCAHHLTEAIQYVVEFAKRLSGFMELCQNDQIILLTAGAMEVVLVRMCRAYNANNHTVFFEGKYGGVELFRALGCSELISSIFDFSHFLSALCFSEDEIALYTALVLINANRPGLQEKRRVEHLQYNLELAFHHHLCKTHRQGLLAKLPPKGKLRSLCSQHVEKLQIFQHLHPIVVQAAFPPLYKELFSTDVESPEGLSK

binding: binds
Substance: Retinoic acid receptor-related orphan receptor gamma t (RoRγt), endogenous in mouse Th17 cells (from UniProt P51450-2 1-495)
